Source: PubChem BioAssay AID248 (DTP/NCI, 2004)
The list shows only some results of the screen, not a fair sample: it is rich in T/C values a quarter to a half above the control, in often repeated tests (any T/C) and in doses without a T/C. Other doses and runs of a compound stand elsewhere. T/C: endpoint of the treated group in % of that of the vehicle group. Some entries give survivors of the animals treated and no T/C: the source files T/C as zero there, which appears to mark a toxic dose or a test without result, not a measured value. Some doses without a T/C left all or most animals alive at the check, yet need not have been tolerated: the source hardly ever lists a survival T/C far under the control, and the zero likely stands for such cases as well. Survivors were counted at the toxicity check, usually on the fifth day, unless a day is given; later deaths do not show. Schedule codes are those of the source, read here as Q, the interval in days (D) or hours (H), X, the number of doses. Some entries hold several experiments; the results are listed from low to high. Some schedules carry Z or #; the key to these is not given. Where survival is the endpoint, the PubChem record calls one and a half times the control and up active, and a quarter to a half above the control has no call in these data; cut-offs in other NCI protocols can differ. Some T/C values carry the count of animals alive at the toxicity check (mostly the fifth day); without a count, all were alive then.

Test system: L1210 leukemia ip in BDF1 mice, survival T/C
Assay: NCI In Vivo Anticancer Drug Screen. Data for tumor model L1210 Leukemia (intraperitoneal) in B6D2F1 (BDF1) mice
Settings: higher T/C = longer survival
[1] = T/C endpoint: mean survival time, dose: 400.0 mg/kg/injection, schedule: Q04DX003 (ip), vehicle: saline with Tween-80
[2] = T/C endpoint: mean survival time, dose: 400.0 mg/kg/injection, schedule: Q01DX001 (ip), vehicle: saline
[3] = T/C endpoint: median survival time, dose: 20.0 mg/kg/injection, schedule: Q01DX009 (ip), vehicle: saline
[4] = T/C endpoint: mean survival time, dose: 400.0 mg/kg/injection, schedule: Q01DX009 (ip), vehicle: Klucel (hydroxypropylcellulose) (HPC)
[5] = T/C endpoint: mean survival time, dose: 400.0 mg/kg/injection, schedule: Q04DX002 (ip), vehicle: saline with Tween-80
[6] = T/C endpoint: mean survival time, dose: 200.0 mg/kg/injection, schedule: Q01DX001 (ip), vehicle: saline

## O=c1ccs[nH]1
T/C endpoint: mean survival time, dose: 50.0 mg/kg/injection, schedule: Q04DX003 (ip), vehicle: saline with Tween-80
  survivor count: 1 of 6 and 4 of 6
T/C endpoint: mean survival time, dose: 100.0 mg/kg/injection, schedule: Q04DX003 (ip), vehicle: saline with Tween-80
  survivor count: 0 of 6
T/C endpoint: mean survival time, dose: 200.0 mg/kg/injection, schedule: Q04DX003 (ip), vehicle: saline with Tween-80
  survivor count: 0 of 6
[1]
  survivor count: 0 of 6

## CCN(CC)CC(=O)NCC(CCN1CCCCC1)(CCN1CCCCC1)c1cccc2ccccc12
T/C endpoint: mean survival time, dose: 100.0 mg/kg/injection, schedule: Q01DX009 (ip), vehicle: saline
  survivor count: 6 of 6
T/C endpoint: mean survival time, dose: 200.0 mg/kg/injection, schedule: Q04DX003 (ip), vehicle: saline
  survivor count: 1 of 6
T/C endpoint: mean survival time, dose: 400.0 mg/kg/injection, schedule: Q04DX003 (ip), vehicle: saline
  survivor count: 0 of 6

## Cc1cccc(C)c1NC(=O)N(CCCl)N=O
T/C endpoint: mean survival time, dose: 8.0 mg/kg/injection, schedule: Q01DX001 (ip), vehicle: carboxymethylcellulose (CMC)
  T/C: 136 % of control
T/C endpoint: mean survival time, dose: 8.6 mg/kg/injection, schedule: Q01DX Z (oral), vehicle: carboxymethylcellulose (CMC)
  T/C: 144 % of control
T/C endpoint: mean survival time, dose: 30.0 mg/kg/injection, schedule: Q01DX Z (oral), vehicle: carboxymethylcellulose (CMC)
  T/C: 140 % of control
T/C endpoint: mean survival time, dose: 45.0 mg/kg/injection, schedule: Q01DX Z (oral), vehicle: carboxymethylcellulose (CMC)
  T/C: 144 % of control [5 of 6 alive]
T/C endpoint: mean survival time, dose: 70.0 mg/kg/injection, schedule: Q01DX Z (oral), vehicle: carboxymethylcellulose (CMC)
  survivor count: 1 of 6
T/C endpoint: mean survival time, dose: 250.0 mg/kg/injection, schedule: Q01DX001 (ip), vehicle: carboxymethylcellulose (CMC)
  survivor count: 0 of 6
T/C endpoint: mean survival time, dose: 375.0 mg/kg/injection, schedule: Q01DX001 (ip), vehicle: carboxymethylcellulose (CMC)
  survivor count: 0 of 6
T/C endpoint: mean survival time, dose: 500.0 mg/kg/injection, schedule: Q01DX001 (ip), vehicle: carboxymethylcellulose (CMC)
  survivor count: 0 of 6

## O=C(CCBr)N1CCN(C(=O)CCBr)CC1
T/C endpoint: mean survival time, dose: 6.25 mg/kg/injection, schedule: Q01DX Z (oral), vehicle: carboxymethylcellulose (CMC)
  T/C: 126 % of control
T/C endpoint: mean survival time, dose: 22.5 mg/kg/injection, schedule: Q01DX Z (ip), vehicle: methylcellulose (MC)
  T/C: 132 % of control
T/C endpoint: mean survival time, dose: 24.0 mg/kg/injection, schedule: Q01DX Z (ip), vehicle: carboxymethylcellulose (CMC)
  T/C: 134 % of control [5 of 6 alive]
T/C endpoint: mean survival time, dose: 36.0 mg/kg/injection, schedule: Q01DX Z (ip), vehicle: carboxymethylcellulose (CMC)
  T/C: 129 % of control
T/C endpoint: mean survival time, dose: 40.0 mg/kg/injection, schedule: Q01DX009 (ip), vehicle: saline
  T/C: 125 and 138 % of control
T/C endpoint: mean survival time, dose: 43.5 mg/kg/injection, schedule: Q07DX006 (ip), vehicle: carboxymethylcellulose (CMC)
  T/C: 128 % of control
T/C endpoint: mean survival time, dose: 50.0 mg/kg/injection, schedule: Q01DX Z (oral), vehicle: carboxymethylcellulose (CMC)
  T/C: 147 % of control
T/C endpoint: mean survival time, dose: 54.0 mg/kg/injection, schedule: Q01DX Z (ip), vehicle: carboxymethylcellulose (CMC)
  T/C: 141 and 144 % of control
T/C endpoint: mean survival time, dose: 75.0 mg/kg/injection, schedule: Q03DX008 (ip), vehicle: carboxymethylcellulose (CMC)
  T/C: 140 % of control
T/C endpoint: mean survival time, dose: 80.0 mg/kg/injection, schedule: Q01DX009 (ip), vehicle: saline
  T/C: 124, 164, 173, 189 % of control [5 of 6 alive]
T/C endpoint: mean survival time, dose: 81.0 mg/kg/injection, schedule: Q01DX Z (ip), vehicle: carboxymethylcellulose (CMC)
  T/C: 143 % of control
T/C endpoint: mean survival time, dose: 87.0 mg/kg/injection, schedule: Q07DX004 (ip), vehicle: carboxymethylcellulose (CMC)
  T/C: 125 % of control
T/C endpoint: mean survival time, dose: 100.0 mg/kg/injection, schedule: Q01DX001 (ip), vehicle: saline, evaluated on day 30
  T/C: 128 % of control [5 of 6 alive]
T/C endpoint: mean survival time, dose: 100.0 mg/kg/injection, schedule: Q01DX001 (ip), vehicle: saline, run until all animals had died
  T/C: 145 % of control
T/C endpoint: mean survival time, dose: 100.0 mg/kg/injection, schedule: Q01DX Z (im), vehicle: carboxymethylcellulose (CMC)
  T/C: 135 % of control
T/C endpoint: mean survival time, dose: 100.0 mg/kg/injection, schedule: Q01DX Z (sc), vehicle: carboxymethylcellulose (CMC)
  T/C: 148 % of control
T/C endpoint: mean survival time, dose: 100.0 mg/kg/injection, schedule: Q04DX003 (ip), vehicle: saline
  T/C: 147 % of control
T/C endpoint: mean survival time, dose: 175.0 mg/kg/injection, schedule: Q07DX004 (ip), vehicle: carboxymethylcellulose (CMC)
  T/C: 146 % of control
T/C endpoint: mean survival time, dose: 200.0 mg/kg/injection, schedule: Q01DX006 (iv), vehicle: saline
  T/C: 128 % of control
T/C endpoint: mean survival time, dose: 400.0 mg/kg/injection, schedule: Q01DX001 (ip), vehicle: carboxymethylcellulose (CMC)
  T/C: 131 % of control
[2]
  T/C: 145 % of control [5 of 6 alive]
T/C endpoint: mean survival time, dose: 400.0 mg/kg/injection, schedule: Q01DX006 (iv), vehicle: saline
  T/C: 143 % of control
T/C endpoint: mean survival time, dose: 400.0 mg/kg/injection, schedule: Q01DX Z (oral), vehicle: carboxymethylcellulose (CMC)
  survivor count: 5 of 6
T/C endpoint: mean survival time, dose: 800.0 mg/kg/injection, schedule: Q01DX Z (im), vehicle: carboxymethylcellulose (CMC)
  survivor count: 1 of 6
T/C endpoint: mean survival time, dose: 800.0 mg/kg/injection, schedule: Q01DX Z (ip), vehicle: carboxymethylcellulose (CMC)
  survivor count: 2 of 6
T/C endpoint: mean survival time, dose: 800.0 mg/kg/injection, schedule: Q01DX Z (sc), vehicle: carboxymethylcellulose (CMC)
  survivor count: 2 of 6
T/C endpoint: mean survival time, dose: 1200.0 mg/kg/injection, schedule: Q03DX003 (ip), vehicle: carboxymethylcellulose (CMC)
  survivor count: 0 of 6
[3]
  T/C: 127 % of control
  survivor count: 6 of 6
T/C endpoint: median survival time, dose: 40.0 mg/kg/injection, schedule: Q01DX009 (ip), vehicle: saline
  T/C: 144 % of control

## CCCCCCN1CC1
T/C endpoint: mean survival time, dose: 60.0 mg/kg/injection, schedule: Q01DX001 (ip), vehicle: saline
  survivor count: 1 of 6
T/C endpoint: mean survival time, dose: 75.0 mg/kg/injection, schedule: Q01DX001 (ip), vehicle: saline
  survivor count: 1 of 6
T/C endpoint: mean survival time, dose: 150.0 mg/kg/injection, schedule: Q01DX001 (ip), vehicle: saline
  survivor count: 0 of 6
T/C endpoint: mean survival time, dose: 300.0 mg/kg/injection, schedule: Q01DX001 (ip), vehicle: saline
  survivor count: 0 of 6

## CN(C)C(=O)Sc1ccc(S(=O)(=O)F)cc1[N+](=O)[O-]
[4]
  survivor count: 0 of 6

## CCOc1ccccc1N1C(=O)C=CC1=O
T/C endpoint: mean survival time, dose: 50.0 mg/kg/injection, schedule: Q04DX002 (ip), vehicle: saline with Tween-80
  survivor count: 0 of 3
T/C endpoint: mean survival time, dose: 100.0 mg/kg/injection, schedule: Q04DX002 (ip), vehicle: saline with Tween-80
  survivor count: 0 of 3
T/C endpoint: mean survival time, dose: 200.0 mg/kg/injection, schedule: Q04DX002 (ip), vehicle: saline with Tween-80
  survivor count: 0 of 3
[5]
  survivor count: 0 of 3

## CC(=O)Nc1ncnc2c1ncn2Cc1ccccc1
[1]
  survivor count: 6 of 6

## Cc1ccccc1NC(=O)Oc1ccc2c(C)cc(=O)oc2c1
[4]
  survivor count: 6 of 6

## CC(=O)c1cccc(OCC(O)CN(C(C)C)C(C)C)c1 (stereo not given)
T/C endpoint: mean survival time, dose: 400.0 mg/kg/injection, schedule: Q01DX009 (ip), vehicle: saline
  survivor count: 0 of 6

## CN(C)/C=N\c1ncnc2c1c(C#N)cn2C1OC(CO)C(O)C1O (stereo not given)
T/C endpoint: mean survival time, dose: 50.0 mg/kg/injection, schedule: Q01DX005 (ip), vehicle: saline
  survivor count: 6 of 6
T/C endpoint: mean survival time, dose: 100.0 mg/kg/injection, schedule: Q01DX005 (ip), vehicle: saline
  survivor count: 0 of 6
T/C endpoint: mean survival time, dose: 200.0 mg/kg/injection, schedule: Q01DX005 (ip), vehicle: saline
  survivor count: 0 of 6

## Cn1c(=O)c2[nH]c(C3CC=CCC3)nc2n(C)c1=O (stereo not given)
T/C endpoint: mean survival time, dose: 200.0 mg/kg/injection, schedule: Q01DX001 (ip), vehicle: other
  survivor count: 4 of 4

## COc1cc(OC(C)=O)c2ncccc2c1OC(C)=O
[6]
  survivor count: 2 of 4
[2]
  survivor count: 0 of 4

## CC(C)(C)C1CCC2(CC1)CCN(CCCN1CCCCCC1)CC2
[6]
  survivor count: 0 of 4
[2]
  survivor count: 0 of 4

## CC(=O)OC1OC(CS[As](C)C)C(OC(C)=O)C(OC(C)=O)C1OC(C)=O (stereo not given)
T/C endpoint: mean survival time, dose: 400.0 mg/kg/injection, schedule: Q04DX003 (ip), vehicle: Klucel (hydroxypropylcellulose) (HPC)
  survivor count: 0 of 6

## O=C1CC(N2CCCCC2)C(=O)N1c1ccccc1 (stereo not given)
[5]
  survivor count: 3 of 3

## CCC[CH2][Sn]([Br])([CH2]CCC)[O]C(C)=O
T/C endpoint: mean survival time, dose: 100.0 mg/kg/injection, schedule: Q04DX002 (ip), vehicle: other
  survivor count: 0 of 3
T/C endpoint: mean survival time, dose: 200.0 mg/kg/injection, schedule: Q04DX002 (ip), vehicle: other
  survivor count: 0 of 3
T/C endpoint: mean survival time, dose: 400.0 mg/kg/injection, schedule: Q04DX002 (ip), vehicle: other
  survivor count: 0 of 3
